Here are results for one molecule from article PMC7563477, “N-Terminal Segment of TvCyP2 Cyclophilin from Trichomonas vaginalis Is Involved in Self-Association, Membrane Interaction, and Subcellular Localization” (Biomolecules, 2020).

Results are given in words; binding and its absence hold for the method and conditions named. Binding can be weak; no strength is given.

In this assay the target is TvCyP2-∆N (TvCyP2 without the N-terminal segment), recombinant with C-terminal His-tag (Trichomonas vaginalis). Nature of the assay: CD thermal unfolding; far-UV CD at 222 nm, 20 to 94 °C at 1 °C/min; TvCyP2-∆N (15 μm) with TvCyP2(3-18) peptide at 1:2 molar ratio; 20 mM NaH2PO4, pH 6.0; both purified.

B1: TvCyP2_(3–18) peptide (peptide)
peptide: AFFATRVISAPKVTKK
notes: residues 3-18 of TvCyP2 of Trichomonas vaginalis (N-terminal segment); source: synthetic peptide, HPLC-grade, bought: Yao-Hong Biotechnology
Turning to B1, the binding result is “binds”.
